Source: US20050261472A1, “Binding moieties for fibrin” (Dyax Corp., priority 1999, published 2005)

Target: DD(E) soluble fibrin-derived polypeptide
Test: competitive DD(E) binding assay with fluoresceinated peptides

binding: binds
Binder: QWECPYGLCWIQ (fluorescein label, site not stated) [fluoresceinated peptide corresponding to SEQ ID NO: 22]

Results are given in words; binding and its absence hold for the method and conditions named. Binding can be weak; no strength is given.
